Patent EP2067481A1, “Therapeutic use of desacyl ghrelin” (Charité - Universitätsmedizin Berlin, priority 2007, dated 2009)
Not every detail of the peptide structures is certain; ends, links or a residue may be inferred.

Experiments:
[1] = Study 2: cumulative body weight gain with ip injection twice daily for eight days; format: in vivo, Zucker rats; settings: for body weight gain: 5 nmol/rat ip twice a day, mean and SEM
Fos = assay: Study 3: Fos-immunoreactivity in hypothalamus and brainstem after ip injection; format: in vivo, Zucker rats
[2] = Study 1: cumulative food intake after ip injection at the beginning of the dark phase, ad libitum fed; format: in vivo, Zucker rats; settings: for cumulative food intake: 12 h post injection
[3] = cited from earlier work
[4] = Study underlying Fig. 6: cumulative food intake after ip ghrelin and desacyl ghrelin, alone or simultaneously, freely fed rats, light phase; format: in vivo, SD rats
Method: Male adult SD rats (Harlan-Winkelmann Co., Borchen, Germany) weighting 250 g were housed in groups of 4 rats/cage under conditions of controlled illumination (12:12 h light/dark cycle, lights on/off: 6:30 a.m./6:30 p.m.), humidity, and temperature (22 ± 2°C). Animals were fed with a standard rat diet (Altromin®, Lage, Germany) and tap water ad libitum. All animals were trained daily to be accustomed to the experimental conditions for 14 days before starting the experiments. During the handling phase, the back position was practiced to make animals familiar with receiving an ip injection.
Rat desacyl ghrelin (0.5 mg/ml; Peptides International, Louisville, USA) or rat ghrelin (1 mg/ml) was dissolved in distilled water and stored at -20°C. Immediately before starting the experiments, peptides were diluted in vehicle solution consisting of sterile 0.15 M NaCl (Braun, Melsungen, Germany) to reach the final concentration of 13 µg (∼4 nmol) ghrelin/kg, and 64 µg (∼20 nmol) or 127 µg (∼40 nmol) desacyl ghrelin/kg body weight. Peptide solutions were kept on ice for the duration of the experiments. Doses of peptides were selected based on previous studies (Chen et al. 2005a; Kobelt et al. 2005; Toshinai et al. 2006).
The experiments were performed at 2.5 h after the start of the light cycle in freely fed rats. At that time period, freely fed rats have their lowest food intake.
On the day of the experiment, freely fed animals were injected ip simultaneously (final volume: 0.5 ml) with vehicle plus vehicle (0.15 M NaCl + 0.15 M NaCl, n=13), ghrelin plus vehicle (13 µg/kg + 0.15 M NaCl, n=13), ghrelin (13 µg/kg) plus 64 µg/kg or 127 µg/kg desacyl ghrelin (n =13 in both groups), or vehicle plus 64 µg/kg desacyl ghrelin (n=13) and returned to single housing cages immediately after the injection. Thereafter, preweighed rat chow was made available to the animals. Food intake was determined by measuring the difference between the preweighed standard chow and the weight of chow at the end of the first 30 min, 1 h and 2 h food exposure.
The cumulative food intake monitored at the end of the first 30 min, 1 h, and 2 h after peptide or vehicle injection was expressed as food intake (g)/body weight (kg) (Ruter et al. 2003). Data were expressed as mean ± SEM and analyzed by Kruskal-Wallis One Way ANOVA. Differences between groups were evaluated by the Student-Newman-Keuls method; p < 0.05 was considered significant.

With `CC(C)C[C@H](NC(=O)[C@H](CCCCN)NC(=O)[C@H](C)NC(=O)[C@@H]1CCCN1C(=O)[C@@H]1CCCN1C(=O)[C@H](CCCCN)NC(=O)[C@H](CCCCN)NC(=O)[C@H](CO)NC(=O)[C@H](CCC(=O)O)NC(=O)[C@H](CCCCN)NC(=O)[C@H](CCCNC(=N)N)NC(=O)[C@H](CCC(N)=O)NC(=O)[C@H](CCC(N)=O)NC(=O)[C@H](C)NC(=O)[C@H](CCCCN)NC(=O)[C@H](CCC(N)=O)NC(=O)[C@H](Cc1c[nH]cn1)NC(=O)[C@H](CCC(=O)O)NC(=O)[C@@H]1CCCN1C(=O)[C@H](CO)NC(=O)[C@H](CC(C)C)NC(=O)[C@H](Cc1ccccc1)NC(=O)[C@H](CO)NC(=O)[C@H](CO)NC(=O)CN)C(=O)N[C@@H](CCC(N)=O)C(=O)N1CCC[C@H]1C(=O)N[C@@H](CCCNC(=N)N)C(=O)O` [desacyl ghrelin, des-n-octanoyl ghrelin] the “effect on body weight gain” value ([1]; 5 nmol ip twice a day for eight days, from day six of treatment, vs. vehicle and untreated controls) was “significant stagnation of body weight gain”, the body weight gain ([1]; day 6 of treatment, vehicle 18.88 ± 1.81) was 10 ± 2.35 g/rat and the body weight gain ([1]; day 7 of treatment, vehicle 17.15 ± 2.16) was 8.63 ± 2.42 g/rat. The body weight gain ([1]; day 8 of treatment, vehicle 22 ± 2.69) was 9.25 ± 3.29 g/rat, the “effect on neuronal activity in the AP (Fos-ir)” value (Fos; 5 nmol ip, complete observation period) was “no effect” and the “effect on Fos expression pattern in the PVN, ARC and NTS” value (Fos; 5 nmol/rat ip, 4.5 and 12.5 h after injection) was “no significant effect”. The “density of Fos positive neurons in the ARC” value (Fos; 5 nmol/rat ip, 90 min after injection, mean ± SEM Fos-ir positive neurons per slide, vehicle 27.33 ± 4.05, p = 0.02) was 68.63 ± 2.77, the “density of Fos positive neurons in the PVN” value (Fos; 5 nmol/rat ip, 90 min after injection, mean ± SEM Fos-ir positive neurons per slide, vehicle 56.84 ± 10.02, p<0.001) was 125.53 ± 8.48 and the “neuronal activity in the NTS (Fos-ir)” value (Fos; 5 nmol/rat ip, 90 min post injection, mean ± SEM Fos-ir positive neurons per slide, 0.15 M NaCl 241.39 ± 30.19, p < 0.001) was 137.73 ± 8.15. For the same compound, the cumulative food intake ([2]; 1 nmol ip, dark phase, mean ± SEM, vehicle 26.45 ± 0.99) was 28.58 ± 1.61 g/kg body weight, the “effect on cumulative food intake” value ([2]; 1 nmol ip, entire observation period (12 h)) was “No effect” and the cumulative food intake ([2]; 5 nmol ip, dark phase, mean ± SEM, vehicle 26.45 ± 0.99, p<0.005) was 21.21± 1.33 g/kg body weight. The food intake ([2]; 5 nmol/rat ip, five hours post injection, dark phase, mean ± SEM, vehicle 14.18 ± 0.88, p<0.016) was 10.79 ± 0.74 g/kg body weight, the “dose after which the peptide's actions were observed” value ([3]; icv administration (Asakawa et al. 2005)) was 1 nmol/rat and the “dose demanded for significant decreased food intake” value ([3]; intraperitoneal administration (Asakawa et al. 2005)) was 3 nmol/rat. The “reduction of nutrients (ghrelin-induced increase in food intake)” value ([4]; both doses of desacyl ghrelin (64 and 127 µg/kg ip), 30 min after injection of ghrelin) was “about 50%”, the food intake ([4]; desacyl ghrelin 64 µg/kg ip alone, 2h, p>0.05 vs. vehicle plus vehicle) was 3.09 ± 1.55 g/kg body weight and the food intake ([4]; desacyl ghrelin 64 µg/kg ip alone, first half hour, not significant vs. vehicle plus vehicle (p>0.05)) was 0.61 ± 0.32 g/kg body weight. The food intake ([4]; desacyl ghrelin 64 µg/kg ip alone, one hour, p>0.05 vs. vehicle plus vehicle) was 2.22 ± 1.06 g/kg body weight, the food intake ([4]; desacyl ghrelin 64 µg/kg simultaneously with acyl ghrelin 13 µg/kg ip, 2h) was 2.81 ± 0.08 g/kg body weight and the food intake ([4]; desacyl ghrelin 64 µg/kg simultaneously with ghrelin 13 µg/kg ip, first half hour) was 2.81 ± 0.80 g/kg. The food intake ([4]; desacyl ghrelin 64 µg/kg simultaneously with ghrelin 13 µg/kg ip, one hour) was 2.81 ± 0.80 g/kg body weight, the food intake ([4]; desacyl ghrelin 127 µg/kg simultaneously with acyl ghrelin 13 µg/kg ip, 2h) was 3.34 ± 1.07 g/kg body weight and the food intake ([4]; desacyl ghrelin 127 µg/kg simultaneously with ghrelin 13 µg/kg ip, first half hour) was 2.86 ± 0.87 g/kg. It also gave a food intake ([4]; desacyl ghrelin 127 µg/kg simultaneously with ghrelin 13 µg/kg ip, one hour) of 3.34 ± 1.07 g/kg body weight.
